Source: PubChem BioAssay AID1224830 (NIAID, 2016)
Test: 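Host factors that control LPS-induced TNF expression in human macrophages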 (primary screen). System: human THP-1 monocytic leukaemia cells, TNF dual-luciferase reporter clone, PMA-differentiated to macrophage-like cells. Reagent: siRNA pool against human genes, 50 nM. Time to read-out: LPS for 4 h, given about 3 days after siRNA transfection. Conditions: bacterial LPS (TLR4 ligand), 10 ng/ml. Measured: 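Ratio of firefly to renilla light, scaled to the plate median and expressed as a robust z-score per replicate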. Reading the numbers: TNF reporter robust z-score: higher = stronger TNF reporter response to LPS. Hit rule: 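a well is active when its z-score exceeds 2.8 or falls below -1.5; control wells carry no call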.
The deposit covers about 18,000 reagents; shown is an unselected part. In the full data, about 2,900 (16%) got an active call. 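Calls are made per well; low scores hint the gene aids the LPS response, high scores that it dampens it.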 Repeated entries: four replicate wells of each siRNA pool.

no.	Target gene	TNF reporter robust z-score	call
1	TRPM7	0.55	inactive
2	TRPM7	0.47	inactive
3	TRPM7	0.91	inactive
4	TRPM7	-0.4	inactive
5	ATXN2 (ataxin 2)	2.04	inactive
6	ATXN2 (ataxin 2)	2.16	inactive
7	ATXN2 (ataxin 2)	0.68	inactive
8	ATXN2 (ataxin 2)	1.28	inactive
9	TNKS (tankyrase)	-1.4	inactive
10	TNKS (tankyrase)	-0.37	inactive
11	TNKS (tankyrase)	-0.56	inactive
12	TNKS (tankyrase)	-0.48	inactive
13	LCE3B (late cornified envelope 3B)	-0.47	inactive
14	LCE3B (late cornified envelope 3B)	0.4	inactive
15	LCE3B (late cornified envelope 3B)	-0.58	inactive
16	LCE3B (late cornified envelope 3B)	-0.49	inactive
17	DHFR (dihydrofolate reductase)	-0.31	inactive
18	DHFR (dihydrofolate reductase)	1.7	inactive
19	DHFR (dihydrofolate reductase)	1.13	inactive
20	DHFR (dihydrofolate reductase)	1.31	inactive
21	MRPL11 (mitochondrial ribosomal protein L11)	-0.79	inactive
22	MRPL11 (mitochondrial ribosomal protein L11)	-1.21	inactive
23	MRPL11 (mitochondrial ribosomal protein L11)	-0.67	inactive
24	MRPL11 (mitochondrial ribosomal protein L11)	-0.89	inactive
25	KRTAP27-1 (keratin associated protein 27-1)	-1.12	inactive
26	KRTAP27-1 (keratin associated protein 27-1)	-1.63	active
27	KRTAP27-1 (keratin associated protein 27-1)	-0.98	inactive
28	KRTAP27-1 (keratin associated protein 27-1)	-0.83	inactive
29	PANK4 (pantothenate kinase 4 (inactive))	-2.15	active
30	PANK4 (pantothenate kinase 4 (inactive))	-2	active
31	PANK4 (pantothenate kinase 4 (inactive))	-1.95	active
32	PANK4 (pantothenate kinase 4 (inactive))	-1.7	active
33	CCDC69 (coiled-coil domain containing 69)	0.26	inactive
34	CCDC69 (coiled-coil domain containing 69)	0.37	inactive
35	CCDC69 (coiled-coil domain containing 69)	-0.35	inactive
36	CCDC69 (coiled-coil domain containing 69)	0.77	inactive
37	GPR17 (G protein-coupled receptor 17)	-0.02	inactive
38	GPR17 (G protein-coupled receptor 17)	0.94	inactive
39	GPR17 (G protein-coupled receptor 17)	0.27	inactive
40	GPR17 (G protein-coupled receptor 17)	2.49	inactive
41	AFG1L (AFG1 like ATPase)	-1.23	inactive
42	AFG1L (AFG1 like ATPase)	-1.05	inactive
43	AFG1L (AFG1 like ATPase)	-1.29	inactive
44	AFG1L (AFG1 like ATPase)	-0.94	inactive
45	GJC1 (gap junction protein gamma 1)	-0.3	inactive
46	GJC1 (gap junction protein gamma 1)	0.69	inactive
47	GJC1 (gap junction protein gamma 1)	-0.16	inactive
48	GJC1 (gap junction protein gamma 1)	0.01	inactive
49	GRIA1 (glutamate ionotropic receptor AMPA type subunit 1)	0.08	inactive
50	GRIA1 (glutamate ionotropic receptor AMPA type subunit 1)	1.29	inactive
51	GRIA1 (glutamate ionotropic receptor AMPA type subunit 1)	0	inactive
52	GRIA1 (glutamate ionotropic receptor AMPA type subunit 1)	0.9	inactive
53	CARINH	0.23	inactive
54	CARINH	0.38	inactive
55	CARINH	0.35	inactive
56	CARINH	0.07	inactive
57	RMP24 (ribonuclease MRP subunit p24)	-1.27	inactive
58	RMP24 (ribonuclease MRP subunit p24)	-0.66	inactive
59	RMP24 (ribonuclease MRP subunit p24)	-1.01	inactive
60	RMP24 (ribonuclease MRP subunit p24)	-0.82	inactive
61	CENPE (centromere protein E)	1.35	inactive
62	CENPE (centromere protein E)	1.58	inactive
63	CENPE (centromere protein E)	0.62	inactive
64	CENPE (centromere protein E)	0.73	inactive
65	WDR24 (WD repeat domain 24)	2.2	inactive
66	WDR24 (WD repeat domain 24)	3.5	active
67	WDR24 (WD repeat domain 24)	0.94	inactive
68	WDR24 (WD repeat domain 24)	1.49	inactive
69	SAP30L (SAP30 like)	-0.25	inactive
70	SAP30L (SAP30 like)	0.21	inactive
71	SAP30L (SAP30 like)	-0.13	inactive
72	SAP30L (SAP30 like)	0.66	inactive
73	CIMAP3 (ciliary microtubule associated protein 3)	-0.81	inactive
74	CIMAP3 (ciliary microtubule associated protein 3)	-0.86	inactive
75	CIMAP3 (ciliary microtubule associated protein 3)	0.07	inactive
76	CIMAP3 (ciliary microtubule associated protein 3)	0.31	inactive
77	WFIKKN2	2.97	active
78	WFIKKN2	0.25	inactive
79	WFIKKN2	1.11	inactive
80	WFIKKN2	0.31	inactive
81	VIPR2 (vasoactive intestinal peptide receptor 2)	-0.3	inactive
82	VIPR2 (vasoactive intestinal peptide receptor 2)	-0.42	inactive
83	VIPR2 (vasoactive intestinal peptide receptor 2)	0.36	inactive
84	VIPR2 (vasoactive intestinal peptide receptor 2)	0.16	inactive
85	NOS1 (nitric oxide synthase 1)	0.72	inactive
86	NOS1 (nitric oxide synthase 1)	1.59	inactive
87	NOS1 (nitric oxide synthase 1)	1.06	inactive
88	NOS1 (nitric oxide synthase 1)	0.82	inactive
89	STK26 (serine/threonine kinase 26)	0.69	inactive
90	STK26 (serine/threonine kinase 26)	-0.82	inactive
91	STK26 (serine/threonine kinase 26)	-0.55	inactive
92	STK26 (serine/threonine kinase 26)	0.98	inactive
93	SLC25A43	0.32	inactive
94	SLC25A43	1.18	inactive
95	SLC25A43	0.88	inactive
96	SLC25A43	-0.6	inactive
97	LRRC14 (leucine rich repeat containing 14)	-0.98	inactive
98	LRRC14 (leucine rich repeat containing 14)	-1.24	inactive
99	LRRC14 (leucine rich repeat containing 14)	-1.17	inactive
100	LRRC14 (leucine rich repeat containing 14)	-0.39	inactive
101	MTERF4 (mitochondrial transcription termination factor 4)	-0.93	inactive
102	MTERF4 (mitochondrial transcription termination factor 4)	-1.79	active
103	MTERF4 (mitochondrial transcription termination factor 4)	-1.49	inactive
104	MTERF4 (mitochondrial transcription termination factor 4)	-1.31	inactive
105	CHRND (cholinergic receptor nicotinic delta subunit)	-1.05	inactive
106	CHRND (cholinergic receptor nicotinic delta subunit)	-1.33	inactive
107	CHRND (cholinergic receptor nicotinic delta subunit)	-1.48	inactive
108	CHRND (cholinergic receptor nicotinic delta subunit)	-0.81	inactive
109	LSM14B (LSM family member 14B)	-0.98	inactive
110	LSM14B (LSM family member 14B)	-0.94	inactive
111	LSM14B (LSM family member 14B)	-0.52	inactive
112	LSM14B (LSM family member 14B)	-0.3	inactive
113	NPLOC4 (NPL4 homolog, ubiquitin recognition factor)	-0.71	inactive
114	NPLOC4 (NPL4 homolog, ubiquitin recognition factor)	-0.45	inactive
115	NPLOC4 (NPL4 homolog, ubiquitin recognition factor)	-1.24	inactive
116	NPLOC4 (NPL4 homolog, ubiquitin recognition factor)	-0.13	inactive
117	CAV2 (caveolin 2)	-0.14	inactive
118	CAV2 (caveolin 2)	-0.12	inactive
119	CAV2 (caveolin 2)	-1.06	inactive
120	CAV2 (caveolin 2)	-0.37	inactive
121	CNMD (chondromodulin)	-1.36	inactive
122	CNMD (chondromodulin)	-1.77	active
123	CNMD (chondromodulin)	-1.96	active
124	CNMD (chondromodulin)	-1.55	active
125	MCF2L (MCF.2 cell line derived transforming sequence like)	-0.71	inactive
126	MCF2L (MCF.2 cell line derived transforming sequence like)	0.23	inactive
127	MCF2L (MCF.2 cell line derived transforming sequence like)	-0.66	inactive
128	MCF2L (MCF.2 cell line derived transforming sequence like)	0.03	inactive
129	SULF2 (sulfatase 2)	-0.48	inactive
130	SULF2 (sulfatase 2)	0.69	inactive
131	SULF2 (sulfatase 2)	0.86	inactive
132	SULF2 (sulfatase 2)	1.18	inactive
133	SLC1A4	0.09	inactive
134	SLC1A4	0.41	inactive
135	SLC1A4	1.07	inactive
136	SLC1A4	1.66	inactive
137	ACTL10 (actin like 10)	1.11	inactive
138	ACTL10 (actin like 10)	0.27	inactive
139	ACTL10 (actin like 10)	0.26	inactive
140	ACTL10 (actin like 10)	-0.75	inactive

Records listed so far whose gene name begins with W or w:
Target gene	TNF reporter robust z-score	call
WDR24 (WD repeat domain 24)	2.2	inactive
WDR24 (WD repeat domain 24)	3.5	active
WDR24 (WD repeat domain 24)	0.94	inactive
WDR24 (WD repeat domain 24)	1.49	inactive
WFIKKN2	2.97	active
WFIKKN2	0.25	inactive
WFIKKN2	1.11	inactive
WFIKKN2	0.31	inactive
